No constants are given. Whether binding was seen depends on the method and setting. Binding seen in cells or lysates may run through a third protein. Some results given as binding are weak or reduced against the parent protein; the word gives no strength.
Target: HA-tagged Etv4 (UniProt P28322)
Test: co-IP; lysate of mouse brown adipose tissue two weeks after injection of AAV HA-Etv4; cell lysis buffer with proteinase inhibitor; IgG or HA antibody for 2 h, protein A/G beads, washed three times with PBS; immunoblot for the indicated proteins

Chains of the proteins cited; added tags and fusions are not shown.
UniProt P28322: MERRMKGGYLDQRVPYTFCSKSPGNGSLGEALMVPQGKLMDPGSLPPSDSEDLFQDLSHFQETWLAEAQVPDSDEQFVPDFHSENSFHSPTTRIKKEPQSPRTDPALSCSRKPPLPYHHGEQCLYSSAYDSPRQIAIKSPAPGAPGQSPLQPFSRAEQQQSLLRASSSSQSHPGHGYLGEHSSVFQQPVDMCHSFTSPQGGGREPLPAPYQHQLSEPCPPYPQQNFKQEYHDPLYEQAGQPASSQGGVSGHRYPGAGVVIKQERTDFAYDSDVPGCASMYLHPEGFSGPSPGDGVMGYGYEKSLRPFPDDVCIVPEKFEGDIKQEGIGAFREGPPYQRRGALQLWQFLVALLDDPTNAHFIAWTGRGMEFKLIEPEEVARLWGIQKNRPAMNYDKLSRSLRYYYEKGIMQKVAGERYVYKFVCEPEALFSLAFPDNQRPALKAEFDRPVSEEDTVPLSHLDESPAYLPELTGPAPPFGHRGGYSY
UniProt P37238: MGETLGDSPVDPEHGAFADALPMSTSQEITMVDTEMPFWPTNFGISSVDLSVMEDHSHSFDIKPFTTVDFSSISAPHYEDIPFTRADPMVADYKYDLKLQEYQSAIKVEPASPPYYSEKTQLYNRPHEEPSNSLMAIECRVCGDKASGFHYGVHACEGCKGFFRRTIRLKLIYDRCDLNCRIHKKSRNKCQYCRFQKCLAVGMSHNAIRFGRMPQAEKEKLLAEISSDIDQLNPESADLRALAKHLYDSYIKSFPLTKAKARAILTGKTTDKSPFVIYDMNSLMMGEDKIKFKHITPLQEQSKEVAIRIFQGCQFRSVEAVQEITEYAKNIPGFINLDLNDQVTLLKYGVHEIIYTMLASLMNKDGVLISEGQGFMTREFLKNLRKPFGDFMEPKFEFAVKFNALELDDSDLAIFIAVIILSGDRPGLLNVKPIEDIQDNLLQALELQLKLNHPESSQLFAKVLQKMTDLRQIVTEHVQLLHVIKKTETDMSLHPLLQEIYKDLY
UniProt P28033: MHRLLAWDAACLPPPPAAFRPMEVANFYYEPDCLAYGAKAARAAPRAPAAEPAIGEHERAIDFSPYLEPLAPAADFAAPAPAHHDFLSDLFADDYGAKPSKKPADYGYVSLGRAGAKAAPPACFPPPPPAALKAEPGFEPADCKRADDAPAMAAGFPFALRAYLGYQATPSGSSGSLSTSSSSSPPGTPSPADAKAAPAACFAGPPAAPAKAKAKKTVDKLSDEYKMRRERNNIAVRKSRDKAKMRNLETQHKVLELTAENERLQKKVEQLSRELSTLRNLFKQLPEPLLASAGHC

binding	Molecule
binds	PPARγ (from UniProt P37238 1-505)
no binding	Cebpβ (from UniProt P28033 1-296)
binds	Ebf2 (protein, UniProt O08792 1-575) MFGIQDTLGRGPALKDKSLGAEMDSVRSWVRNVGVVDANVAAQSGVALSRAHFEKQPPSNLRKSNFFHFVLALYDRQGQPVEIERTAFVDFVENDKEQGNEKTNNGTHYKLQLLYSNGVRTEQDLYVRLIDSVTKQPIAYEGQNKNPEMCRVLLTHEVMCSRCCEKKSCGNRNETPSDPVIIDRFFLKFFLKCNQNCLKTAGNPRDMRRFQVVLSTTVNVDGHVLAVSDNMFVHNNSKHGRRARRLDPSEATPCIKAISPSEGWTTGGAMVIIIGDNFFDGLQVVFGTMLVWSELITPHAIRVQTPPRHIPGVVEVTLSYKSKQFCKGAPGRFIYTALNEPTIDYGFQRLQKVIPRHPGDPERLAKEMLLKRAADLVEALYGTPHNNQDIILKRAADIAEALYSVPRNPSQIPALSSSPAHSGMMGINSYGSQLGVSISESTQGNNQGYIRNTSSISPRGYSSSSTPQQSNYSTSSNSMNGYSNVPMANLGVPGSPGFLNGSPTGSPYGIMSSSPTVGSSSTSSILPFSSSVFPAVKQKSAFAPVIRPQGSPSPACSSGNGNGFRAMTGLVVPPM

From article PMC12211996
